Results are given in words; binding and its absence hold for the method and conditions named. In cells and extracts the contact can be indirect. Some binding calls cover weakened binding; strength is not graded here.
Target: wild-type (WT) form of PAK1, Venus fragment fusion (UniProt Q13153)
Test: split reporter

Amino acid sequences for entries named in this document (tags omitted). A change or cut given only in a name is not applied to a line headed by its entry.
UniProt Q13153, whole entry: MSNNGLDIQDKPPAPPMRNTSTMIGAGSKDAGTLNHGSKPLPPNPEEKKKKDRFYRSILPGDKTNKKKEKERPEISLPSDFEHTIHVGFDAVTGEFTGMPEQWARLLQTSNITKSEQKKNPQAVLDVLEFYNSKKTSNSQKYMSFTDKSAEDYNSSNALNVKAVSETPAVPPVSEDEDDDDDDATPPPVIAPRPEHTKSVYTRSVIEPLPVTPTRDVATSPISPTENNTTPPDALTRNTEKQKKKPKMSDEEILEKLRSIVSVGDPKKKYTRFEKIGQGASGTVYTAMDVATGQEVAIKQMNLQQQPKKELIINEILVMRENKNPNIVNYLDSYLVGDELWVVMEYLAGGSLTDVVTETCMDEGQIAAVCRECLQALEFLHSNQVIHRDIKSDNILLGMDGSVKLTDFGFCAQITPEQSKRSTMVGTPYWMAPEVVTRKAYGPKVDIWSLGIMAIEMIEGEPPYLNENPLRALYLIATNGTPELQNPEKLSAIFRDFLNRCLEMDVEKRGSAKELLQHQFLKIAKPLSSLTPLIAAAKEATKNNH

| Substance | binding |
| --- | --- |
| constitutively active (CA) mutant form of CDC42 (Q61L), Venus fragment fusion (from UniProt P60953 1-191) | binds |
| constitutively active (CA) mutant form of RHOJ (Q79L), Venus fragment fusion (from UniProt Q9H4E5 1-214) | binds |

— PMC9127750
